The source of these data is patent US20050142137A1.

Amino acid sequences for entries named in this document (tags omitted). A change or cut given only in a name is not applied to a line headed by its entry.
UniProt P03973: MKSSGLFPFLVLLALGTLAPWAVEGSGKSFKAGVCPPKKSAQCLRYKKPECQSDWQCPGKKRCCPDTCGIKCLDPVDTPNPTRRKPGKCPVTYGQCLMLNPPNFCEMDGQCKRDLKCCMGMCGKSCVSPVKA

Changes are numbered by the printed parent chain. Results are given in words; binding and its absence hold for the method and conditions named. Some results given as binding are weak or reduced against the parent protein; the word gives no strength.

Assay [1] deals with recombinant human SLPI (Secretory leukocyte protease inhibitor), R&D Systems Cat#260-PI (human) (UniProt P03973). Description: ELISA rescreen on SLPI.
The target is the same in assay [2]. Description: SLPI-specific hemolytic plaque assay on SLPI-coated SRBCs.

B1: 43H7 (antibody, human IgG2, V domains shown)
VH: QVQLVESGGGVVQPGRSLRLSCAASGFTFSTYGMHWVRQAPGKGLEWVTFIWYDGRNKYYADSVKGRFTVSRDNSKNTLYLQMNSLRAEDTAVYYCARGDDYGDYHPHYYYYGLDVWGQGTTVTVSS
VL: DIVMTQTPLSLSVTPGQPASISCKSSQSLLDSDGKTYLYWYLQKPGQPPQLLIYEVSNRFSGVPDRFSGSGSGTDFTLKISRVEAEDVAYYYCMQSIQLPWTFGQGTKVEIK
As for B1, the binding result in assay [1] and in assay [2] was “binds” throughout.

B2: 9G12 (antibody, human IgG2, V domains shown)
VH: B1 VH with T31G, T49A, D54N, R56N, N57D, K58N, A61T, V70I, L114M
VL: B1 VL with V88I, A89G, Y90V, M94L
In the case of B2, the binding entry in assay [1] and in assay [2] was “binds” throughout.
